Assay results as given in US20190025332A1.
Results are given in words; binding and its absence hold for the method and conditions named.

B1: hARTN (ligand, human, UniProt Q5T4W7 108-220, looked up)
chain: AGGPGSRARAAGARGCRLRSQLVPVRALGLGHRSDELVRFRFCSGSCRRARSPHDLSLASLLGAGALRPPPGSRPVSQPCCRPTRYEAVSFMDVNSTWRTVDRLSATACGCLG
B2: hPSPN (ligand, human, UniProt O60542 61-156, looked up)
chain: ALSGPCQLWSLTLSVAELGLGYASEEKVIFRYCAGSCPRGARTQHGLALARLQGQGRAHGGPCCRPTRYTDVAFLDDRHRWQRLPQLSAAACGCGG
B3: hGDNF (ligand, human, UniProt P39905 78-211, looked up)
chain: SPDKQMAVLPRRERNRQAAAANPENSRGKGRRGQRGKNRGCVLTAIHLNVTDLGLGYETKEELIFRYCSGSCDAAETTYDKILKNLSRNRRLVSDKVGQACCRPIAFDDDLSFLDDNLVYHILRKHSAKRCGCI
B4: wild type human MIC-1 (ligand)
chain: ARNGDHCPLGPGRCCRLHTVRASLEDLGWADWVLSPREVQVTMCIGACPSQFRAANMHAQIKTSLHRLKPDTVPAPCCVPASYNPMVLIQKTDTGVSLQTYDDLLAKDCHCI
B5: hNRTN (ligand, human, UniProt Q99748 96-197, looked up)
chain: ARLGARPCGLRELEVRVSELGLGYASDETVLFRYCAGACEAAARVYDLGLRRLRQRRRLRRERVRAQPCCRPTAYEDEVSFLDAHSRYHTVHELSARECACV

Molecular target: FCRL2-Fab-HPC4
Test: SPR; ligand as analyte over immobilised Ctrl.-Fab-HPC4

binding, no binding:
B1, B2, B3, B4, B5
